Laboratory results: publication PMC10516997
These are yes or no findings as the source states them, for the method shown. In cells and extracts the contact can be indirect. Some entries that bind do so weakly or less than the wild type. Tags and fused reporters may be left off the sequences shown.

By UniProt entry, the sequences of proteins in these tests, tags left out.
UniProt Q9UKL0: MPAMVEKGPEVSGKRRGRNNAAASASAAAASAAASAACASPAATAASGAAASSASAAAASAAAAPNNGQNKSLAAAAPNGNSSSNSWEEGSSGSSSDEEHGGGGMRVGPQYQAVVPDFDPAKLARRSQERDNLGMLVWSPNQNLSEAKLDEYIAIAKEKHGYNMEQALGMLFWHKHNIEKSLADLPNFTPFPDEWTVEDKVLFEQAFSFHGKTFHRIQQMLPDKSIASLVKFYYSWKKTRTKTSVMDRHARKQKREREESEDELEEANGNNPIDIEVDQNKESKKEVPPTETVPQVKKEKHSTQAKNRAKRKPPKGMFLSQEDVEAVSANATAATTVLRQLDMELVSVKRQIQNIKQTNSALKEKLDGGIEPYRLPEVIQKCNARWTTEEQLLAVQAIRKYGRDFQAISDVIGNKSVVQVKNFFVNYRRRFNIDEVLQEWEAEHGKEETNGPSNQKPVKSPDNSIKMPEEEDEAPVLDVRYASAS

Target: T1, Flag-tagged E2F7 (UniProt Q96AV8)
T1 sequence: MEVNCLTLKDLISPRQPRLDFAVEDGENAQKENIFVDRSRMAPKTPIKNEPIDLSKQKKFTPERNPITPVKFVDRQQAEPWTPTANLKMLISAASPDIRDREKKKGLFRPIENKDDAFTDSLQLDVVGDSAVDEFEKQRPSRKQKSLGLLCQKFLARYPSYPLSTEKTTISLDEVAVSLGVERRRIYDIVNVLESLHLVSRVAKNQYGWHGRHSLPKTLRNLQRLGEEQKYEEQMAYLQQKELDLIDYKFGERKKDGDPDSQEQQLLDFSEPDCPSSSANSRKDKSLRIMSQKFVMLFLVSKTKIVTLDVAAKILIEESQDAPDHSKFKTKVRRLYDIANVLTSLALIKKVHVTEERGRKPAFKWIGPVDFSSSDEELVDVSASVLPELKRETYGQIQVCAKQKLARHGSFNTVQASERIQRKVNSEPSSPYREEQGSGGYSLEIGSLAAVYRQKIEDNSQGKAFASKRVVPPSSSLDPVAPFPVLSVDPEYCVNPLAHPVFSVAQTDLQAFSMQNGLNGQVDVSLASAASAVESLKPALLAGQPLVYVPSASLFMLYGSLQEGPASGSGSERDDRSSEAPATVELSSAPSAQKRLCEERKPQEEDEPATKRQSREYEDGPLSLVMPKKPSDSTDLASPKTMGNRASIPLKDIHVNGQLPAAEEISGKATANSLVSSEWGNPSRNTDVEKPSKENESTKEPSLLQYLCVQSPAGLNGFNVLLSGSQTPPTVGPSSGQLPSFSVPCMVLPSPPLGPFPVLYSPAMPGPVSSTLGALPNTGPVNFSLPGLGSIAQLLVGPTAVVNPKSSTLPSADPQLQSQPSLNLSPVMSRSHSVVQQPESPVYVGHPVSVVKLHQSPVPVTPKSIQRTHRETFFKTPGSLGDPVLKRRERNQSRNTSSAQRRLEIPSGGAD
Assay: co-IP; Flag-tagged bait stably expressed in H209, H69 and H526 cells; endogenous partner detected

binding: binds
Substance: endogenous RCOR1 (from UniProt Q9UKL0 1-485)
